The record followed here is PMC12305169.

Sequences of proteins named here, by UniProt entry; tags and fusion partners are left off.
UniProt Q14145: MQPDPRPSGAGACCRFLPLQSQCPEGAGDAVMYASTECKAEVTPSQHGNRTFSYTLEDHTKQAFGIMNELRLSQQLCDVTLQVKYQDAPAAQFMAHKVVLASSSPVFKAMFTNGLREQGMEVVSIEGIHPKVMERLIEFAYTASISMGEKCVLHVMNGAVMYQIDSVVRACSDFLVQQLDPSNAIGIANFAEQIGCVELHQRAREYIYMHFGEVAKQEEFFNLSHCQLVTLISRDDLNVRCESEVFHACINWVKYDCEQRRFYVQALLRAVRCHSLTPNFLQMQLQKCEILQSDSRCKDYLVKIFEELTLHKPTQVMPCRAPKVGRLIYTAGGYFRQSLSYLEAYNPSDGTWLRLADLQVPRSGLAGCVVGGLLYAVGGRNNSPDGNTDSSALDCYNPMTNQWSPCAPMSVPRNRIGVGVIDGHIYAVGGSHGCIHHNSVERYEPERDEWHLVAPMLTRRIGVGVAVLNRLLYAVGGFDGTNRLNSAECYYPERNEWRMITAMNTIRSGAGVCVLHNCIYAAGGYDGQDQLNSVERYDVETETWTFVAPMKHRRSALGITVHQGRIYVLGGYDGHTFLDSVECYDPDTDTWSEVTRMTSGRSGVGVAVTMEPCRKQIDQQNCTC

The target of assay [1] is Kelch-like ECH-associated protein 1 (Keap1), endogenous (human (endogenous in MDA-MB-231 and MDA-MB-468)) (UniProt Q14145). The assay is described as follows: co-IP; endogenous immunoprecipitation from MDA-MB-231 and MDA-MB-468 cell lysates; precipitating antibody not given.
The target of assay [2] is T1, nuclear factor erythroid 2-related factor 2 (Nrf2), endogenous (human (endogenous in MDA-MB-231 and MDA-MB-468)) (UniProt Q16236).
T1 sequence: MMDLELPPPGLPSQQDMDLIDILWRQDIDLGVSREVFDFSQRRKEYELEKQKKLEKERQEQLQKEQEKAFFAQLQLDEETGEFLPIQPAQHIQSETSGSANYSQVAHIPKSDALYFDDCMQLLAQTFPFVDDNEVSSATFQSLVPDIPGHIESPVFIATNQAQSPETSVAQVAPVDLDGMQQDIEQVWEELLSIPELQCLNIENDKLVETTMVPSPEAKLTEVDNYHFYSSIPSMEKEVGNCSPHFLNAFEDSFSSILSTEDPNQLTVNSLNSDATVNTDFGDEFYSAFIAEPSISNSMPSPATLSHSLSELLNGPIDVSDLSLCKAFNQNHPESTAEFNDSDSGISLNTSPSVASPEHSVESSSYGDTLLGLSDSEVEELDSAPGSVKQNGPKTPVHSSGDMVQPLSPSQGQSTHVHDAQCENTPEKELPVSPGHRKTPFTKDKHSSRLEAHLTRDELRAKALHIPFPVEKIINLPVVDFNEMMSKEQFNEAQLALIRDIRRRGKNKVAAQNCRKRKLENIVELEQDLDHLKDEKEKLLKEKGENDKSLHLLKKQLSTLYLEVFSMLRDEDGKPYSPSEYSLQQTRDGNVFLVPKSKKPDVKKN
The assay is described as above.

The target of assay [3] is Myc-Keap1 (Keap1 WT) (human) (UniProt Q14145). Kind of assay: co-IP; HEK-293T cells transfected with Flag-EDEM1 and Myc-Keap1 (WT or truncated mutants); Flag-IP and Myc-IP, immunoblot. In general terms: A western blot detects proteins with antibodies after separation by electrophoresis.

Results are given in words; binding and its absence hold for the method and conditions named. Binding seen in cells or lysates may run through a third protein. Some entries that bind do so weakly or less than the wild type. For part of these data: Tags and fused reporters may be left off the sequences shown.

B1: EDEM1 (ER degradation enhancing α-mannosidase-like 1), endogenous (protein, UniProt Q92611 1-657)
chain: MQWRALVLGLVLLRLGLHGVLWLVFGLGPSMGFYQRFPLSFGFQRLRSPDGPASPTSGPVGRPGGVSGPSWLQPPGTGAAQSPRKAPRRPGPGMCGPANWGYVLGGRGRGPDEYEKRYSGAFPPQLRAQMRDLARGMFVFGYDNYMAHAFPQDELNPIHCRGRGPDRGDPSNLNINDVLGNYSLTLVDALDTLAIMGNSSEFQKAVKLVINTVSFDKDSTVQVFEATIRVLGSLLSAHRIITDSKQPFGDMTIKDYDNELLYMAHDLAVRLLPAFENTKTGIPYPRVNLKTGVPPDTNNETCTAGAGSLLVEFGILSRLLGDSTFEWVARRAVKALWNLRSNDTGLLGNVVNIQTGHWVGKQSGLGAGLDSFYEYLLKSYILFGEKEDLEMFNAAYQSIQNYLRRGREACNEGEGDPPLYVNVNMFSGQLMNTWIDSLQAFFPGLQVLIGDVEDAICLHAFYYAIWKRYGALPERYNWQLQAPDVLFYPLRPELVESTYLLYQATKNPFYLHVGMDILQSLEKYTKVKCGYATLHHVIDKSTEDRMESFFLSETCKYLYLLFDEDNPVHKSGTRYMFTTEGHIVSVDEHLRELPWKEFFSEEGGQDQGGKSVHRPKPHELKVINSSSNCNRVPDERRYSLPLKSIYMRQIDQMVGLI
Take B1: the binding result was “binds” in assay [1] and “no binding” in assay [2].

B2: Flag-EDEM1 (human) (protein, UniProt Q92611 1-657)
chain: B1 chain
As to B2, the binding result in assay [3] was “binds”.
